This note sets out measurements from PMC9849454, “Kaposi’s sarcoma-associated herpesvirus induces specialised ribosomes to efficiently translate viral lytic mRNAs” (Nature Communications, 2023).

Amino acid sequences for entries named in this document (tags omitted).
UniProt P52294: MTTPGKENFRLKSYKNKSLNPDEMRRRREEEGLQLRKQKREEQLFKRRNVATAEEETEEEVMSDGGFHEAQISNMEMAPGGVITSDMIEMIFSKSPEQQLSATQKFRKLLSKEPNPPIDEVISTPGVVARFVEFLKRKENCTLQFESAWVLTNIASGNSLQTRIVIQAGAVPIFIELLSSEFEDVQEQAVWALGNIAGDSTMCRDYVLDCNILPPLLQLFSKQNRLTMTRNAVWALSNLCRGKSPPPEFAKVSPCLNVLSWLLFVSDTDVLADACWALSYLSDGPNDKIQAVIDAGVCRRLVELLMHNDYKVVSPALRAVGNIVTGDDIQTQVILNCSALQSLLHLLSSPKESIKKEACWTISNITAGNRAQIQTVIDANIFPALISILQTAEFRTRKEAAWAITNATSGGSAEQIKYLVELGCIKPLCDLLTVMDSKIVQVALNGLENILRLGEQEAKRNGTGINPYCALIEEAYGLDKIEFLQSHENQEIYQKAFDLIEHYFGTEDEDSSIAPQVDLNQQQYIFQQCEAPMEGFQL
UniProt Q2HRC8: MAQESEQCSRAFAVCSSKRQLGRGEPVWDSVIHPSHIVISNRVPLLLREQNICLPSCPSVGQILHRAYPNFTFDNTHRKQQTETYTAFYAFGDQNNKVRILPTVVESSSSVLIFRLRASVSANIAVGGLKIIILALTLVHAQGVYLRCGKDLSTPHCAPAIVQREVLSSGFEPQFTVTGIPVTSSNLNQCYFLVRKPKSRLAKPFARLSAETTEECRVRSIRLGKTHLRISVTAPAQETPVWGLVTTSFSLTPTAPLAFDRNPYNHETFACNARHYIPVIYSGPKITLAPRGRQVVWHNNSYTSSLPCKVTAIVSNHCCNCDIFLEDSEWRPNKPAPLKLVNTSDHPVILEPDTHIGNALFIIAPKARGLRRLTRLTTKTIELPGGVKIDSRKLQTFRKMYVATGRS

These are yes or no findings as the source states them, for the method shown. In cells and extracts the contact can be indirect.

In the assay the target is GFP-importin α5 (UniProt P52294). The experiment in a line: co-IP.

In the case of ORF11-V5 (from UniProt Q2HRC8 1-407), the binding entry is recorded as “no binding”.
